Measured values reported in patent publication US20250145673A1.
Results are given in words; binding and its absence hold for the method and conditions named. Some results given as binding are weak or reduced against the parent protein; the word gives no strength.

Amino acid sequences for entries named in this document (tags omitted). Residues count along the entry.
UniProt P01024, residues 23-1663: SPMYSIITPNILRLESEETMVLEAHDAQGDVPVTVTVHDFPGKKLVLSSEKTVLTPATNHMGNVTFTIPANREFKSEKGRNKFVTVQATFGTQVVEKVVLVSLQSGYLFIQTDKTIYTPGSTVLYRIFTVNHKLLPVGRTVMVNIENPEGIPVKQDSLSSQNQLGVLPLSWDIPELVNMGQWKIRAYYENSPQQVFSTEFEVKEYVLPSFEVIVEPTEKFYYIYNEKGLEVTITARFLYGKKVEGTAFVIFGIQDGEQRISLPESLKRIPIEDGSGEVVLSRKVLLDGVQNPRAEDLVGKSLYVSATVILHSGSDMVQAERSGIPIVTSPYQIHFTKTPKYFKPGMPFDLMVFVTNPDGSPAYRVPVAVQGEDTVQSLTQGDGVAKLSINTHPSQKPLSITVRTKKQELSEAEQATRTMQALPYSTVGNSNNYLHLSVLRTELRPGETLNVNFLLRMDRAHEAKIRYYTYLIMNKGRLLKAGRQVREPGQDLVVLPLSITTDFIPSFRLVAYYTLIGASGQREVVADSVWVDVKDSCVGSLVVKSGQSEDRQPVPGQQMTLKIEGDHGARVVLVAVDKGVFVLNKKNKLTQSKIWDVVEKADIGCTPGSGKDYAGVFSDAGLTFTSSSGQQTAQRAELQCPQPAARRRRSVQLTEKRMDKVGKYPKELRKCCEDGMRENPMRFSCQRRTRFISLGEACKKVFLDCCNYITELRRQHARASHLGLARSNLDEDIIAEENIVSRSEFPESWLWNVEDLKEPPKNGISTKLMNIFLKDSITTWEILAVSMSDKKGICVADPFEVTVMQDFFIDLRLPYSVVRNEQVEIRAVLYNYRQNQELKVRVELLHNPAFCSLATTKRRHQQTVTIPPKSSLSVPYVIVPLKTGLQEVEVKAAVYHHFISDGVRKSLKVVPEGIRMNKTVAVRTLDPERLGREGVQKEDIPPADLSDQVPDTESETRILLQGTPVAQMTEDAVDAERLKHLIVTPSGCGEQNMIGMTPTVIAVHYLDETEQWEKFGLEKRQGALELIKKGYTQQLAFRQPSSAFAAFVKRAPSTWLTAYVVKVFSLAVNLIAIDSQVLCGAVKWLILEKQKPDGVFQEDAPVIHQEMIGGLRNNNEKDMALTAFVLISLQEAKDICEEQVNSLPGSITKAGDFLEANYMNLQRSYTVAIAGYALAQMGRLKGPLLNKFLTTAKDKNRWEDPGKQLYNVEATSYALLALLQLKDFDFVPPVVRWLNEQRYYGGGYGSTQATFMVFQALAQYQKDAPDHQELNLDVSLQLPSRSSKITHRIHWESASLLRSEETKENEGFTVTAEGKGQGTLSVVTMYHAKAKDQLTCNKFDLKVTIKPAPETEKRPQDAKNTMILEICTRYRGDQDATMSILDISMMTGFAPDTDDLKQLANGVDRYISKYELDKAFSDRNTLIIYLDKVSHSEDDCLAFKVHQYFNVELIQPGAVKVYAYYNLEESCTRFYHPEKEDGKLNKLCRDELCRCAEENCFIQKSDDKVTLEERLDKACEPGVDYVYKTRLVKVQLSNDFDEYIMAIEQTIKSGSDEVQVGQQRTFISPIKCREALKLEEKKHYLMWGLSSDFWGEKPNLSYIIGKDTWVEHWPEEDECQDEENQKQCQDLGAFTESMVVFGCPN

Key:
[1] = target: complement component 3 (C3) (UniProt P01024); assay: ITC and SPR (Table 20)
[2] = target: complement component 3 (C3) (UniProt P01024); assay: SPR, single cycle kinetics
[3] = target: complement component 3 (C3) (UniProt P01024); assay: SPR, single cycle kinetics, 1:1 Langmuir fit

B1: polypeptide having the amino acid sequence of SEQ ID NO: 27 (designed binder)
chain: MVKVKFEATGEEKEVDTSKIYQVYRSGKEVLFTYDDNGKTGWGYVSEKDAPKELLDMLARAEREK
In the case of B1, the binding [1] is reported as “binds”, the binding [2] is reported as “binds” and the binding [3] is reported as “binds”.

B2: polypeptide comprising the amino acid sequence of SEQ ID NO: 33 (designed binder)
chain: MVKVKFAATGEEKEVETSKIANVYRVGKDVLFSYDDQGKIGWGYVSEKDAPKELLDLLARAEREK
In the case of B2, the binding [1] is reported as “binds” and the binding [3] is reported as “binds”.

B3: polypeptide comprising the amino acid sequence of SEQ ID NO: 34 (designed binder)
chain: MVKVKFDATGEEKEVETSKISAVYRTGKDVLFSYDDQGKIGWGYVSEKDAPKELLDLLARAEREK
B3 was tested, and the binding [1] was “binds” and the binding [3] was “binds”.
